Reference: publication PMC7615196, “PIM1 controls GBP1 activity to limit self-damage and to guard against pathogen infection” (Science (New York, N.Y.), 2023)
Results are given in words; binding and its absence hold for the method and conditions named. Binding seen in cells or lysates may run through a third protein. Here binding means that the protein was enriched with, or labelled near, the bait; the list need not be complete. Where a sequence is shown, tags or fusion partners need not be part of it.

The chains behind the UniProt entries cited, without tags or fusion partners. Residues count along the entry.
UniProt P31946: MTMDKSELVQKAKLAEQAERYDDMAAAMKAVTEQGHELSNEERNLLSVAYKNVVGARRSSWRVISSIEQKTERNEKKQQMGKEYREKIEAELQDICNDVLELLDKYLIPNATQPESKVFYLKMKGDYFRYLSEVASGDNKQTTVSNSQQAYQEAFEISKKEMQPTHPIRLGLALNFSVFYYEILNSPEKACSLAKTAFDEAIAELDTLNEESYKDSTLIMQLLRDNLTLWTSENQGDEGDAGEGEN
UniProt P63104: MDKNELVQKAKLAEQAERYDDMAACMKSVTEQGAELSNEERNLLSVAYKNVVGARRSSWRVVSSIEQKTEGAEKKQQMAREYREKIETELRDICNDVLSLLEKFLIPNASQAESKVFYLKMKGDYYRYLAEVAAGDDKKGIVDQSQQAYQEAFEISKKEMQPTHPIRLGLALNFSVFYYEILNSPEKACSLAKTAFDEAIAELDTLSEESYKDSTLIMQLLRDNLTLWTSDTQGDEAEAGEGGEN
UniProt F2YGR7, residues 25-549: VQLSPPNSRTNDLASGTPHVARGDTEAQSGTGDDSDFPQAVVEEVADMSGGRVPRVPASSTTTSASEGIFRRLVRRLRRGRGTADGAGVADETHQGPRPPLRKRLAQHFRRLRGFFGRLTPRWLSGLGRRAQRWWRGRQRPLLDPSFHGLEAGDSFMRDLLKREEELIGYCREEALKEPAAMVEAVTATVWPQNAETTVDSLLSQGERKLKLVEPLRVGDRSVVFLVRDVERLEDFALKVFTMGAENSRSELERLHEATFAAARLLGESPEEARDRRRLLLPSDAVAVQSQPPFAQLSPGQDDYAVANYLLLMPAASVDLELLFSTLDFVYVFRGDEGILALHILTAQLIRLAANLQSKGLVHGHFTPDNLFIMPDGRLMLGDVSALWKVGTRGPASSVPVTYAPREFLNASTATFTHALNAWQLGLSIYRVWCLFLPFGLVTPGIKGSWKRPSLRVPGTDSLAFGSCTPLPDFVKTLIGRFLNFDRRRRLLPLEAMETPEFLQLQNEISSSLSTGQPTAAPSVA

Target: T1, Flag-GBP1 WT (THP-1ΔGBP1+Tet-Flag-GBP1 cells) (human) (UniProt P32455)
T1 sequence: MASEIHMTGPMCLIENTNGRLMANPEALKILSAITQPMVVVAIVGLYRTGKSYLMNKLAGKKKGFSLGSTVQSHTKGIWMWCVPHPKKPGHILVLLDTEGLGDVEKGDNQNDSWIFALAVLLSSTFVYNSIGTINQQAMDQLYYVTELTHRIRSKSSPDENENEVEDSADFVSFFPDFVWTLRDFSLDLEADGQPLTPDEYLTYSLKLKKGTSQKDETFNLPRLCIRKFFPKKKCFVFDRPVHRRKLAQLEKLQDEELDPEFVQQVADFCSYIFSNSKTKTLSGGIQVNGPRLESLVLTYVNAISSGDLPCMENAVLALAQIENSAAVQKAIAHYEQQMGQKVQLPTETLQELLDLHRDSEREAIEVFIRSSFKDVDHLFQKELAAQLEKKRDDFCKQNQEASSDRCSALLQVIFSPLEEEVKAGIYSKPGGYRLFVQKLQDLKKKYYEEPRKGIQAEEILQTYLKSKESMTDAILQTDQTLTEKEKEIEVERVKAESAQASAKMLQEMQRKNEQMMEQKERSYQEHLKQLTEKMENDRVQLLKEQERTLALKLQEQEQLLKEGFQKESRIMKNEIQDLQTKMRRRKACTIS
Test: affinity purification with mass spectrometry; Flag-immunoprecipitation from IFNγ (CTRL) or IFNγ+Dox-treated THP-1ΔGBP1+Flag-GBP1 cells, uninfected or infected with Tg WT; lysis buffer 1% Triton X-100, 20 mM Tris-HCl pH 8.0, 130 mM NaCl; LFQ

Row | Substance | binding
1 | 14-3-3β (endogenous, THP-1 cells) (from UniProt P31946 1-246) | binds
2 | 14-3-3ζ (endogenous, THP-1 cells) (from UniProt P63104 1-245) | binds
3 | parasite-derived TgROP5 (from UniProt F2YGR7 25-549) | binds
